Results are given in words; binding and its absence hold for the method and conditions named. In cells and extracts the contact can be indirect. These calls come from enrichment with a bait or labelling near it, and not all partners need be listed. For part of these data: A no says only that the protein was not detected with the bait. For part of these data: Where a sequence is shown, tags or fusion partners need not be part of it.

The chains behind the UniProt entries cited, without tags or fusion partners. Residues count along the entry.
UniProt P02545, residues 1-646: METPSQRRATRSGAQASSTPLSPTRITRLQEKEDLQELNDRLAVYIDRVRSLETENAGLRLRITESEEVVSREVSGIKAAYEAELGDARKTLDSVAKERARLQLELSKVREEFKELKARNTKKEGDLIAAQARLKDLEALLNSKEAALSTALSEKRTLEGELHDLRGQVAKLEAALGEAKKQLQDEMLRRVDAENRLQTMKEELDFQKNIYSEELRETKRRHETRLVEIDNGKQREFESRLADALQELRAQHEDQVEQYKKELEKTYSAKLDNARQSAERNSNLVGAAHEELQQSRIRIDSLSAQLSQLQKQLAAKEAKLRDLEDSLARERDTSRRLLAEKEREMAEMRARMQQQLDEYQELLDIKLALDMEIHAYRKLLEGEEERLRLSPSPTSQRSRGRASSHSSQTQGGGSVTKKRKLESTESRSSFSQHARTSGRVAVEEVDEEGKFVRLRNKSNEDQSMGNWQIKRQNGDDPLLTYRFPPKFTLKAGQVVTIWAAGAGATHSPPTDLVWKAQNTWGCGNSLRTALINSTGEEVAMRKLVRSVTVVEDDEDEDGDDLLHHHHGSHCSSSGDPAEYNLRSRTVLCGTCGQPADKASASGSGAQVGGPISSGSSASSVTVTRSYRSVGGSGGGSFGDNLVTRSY
UniProt Q14739: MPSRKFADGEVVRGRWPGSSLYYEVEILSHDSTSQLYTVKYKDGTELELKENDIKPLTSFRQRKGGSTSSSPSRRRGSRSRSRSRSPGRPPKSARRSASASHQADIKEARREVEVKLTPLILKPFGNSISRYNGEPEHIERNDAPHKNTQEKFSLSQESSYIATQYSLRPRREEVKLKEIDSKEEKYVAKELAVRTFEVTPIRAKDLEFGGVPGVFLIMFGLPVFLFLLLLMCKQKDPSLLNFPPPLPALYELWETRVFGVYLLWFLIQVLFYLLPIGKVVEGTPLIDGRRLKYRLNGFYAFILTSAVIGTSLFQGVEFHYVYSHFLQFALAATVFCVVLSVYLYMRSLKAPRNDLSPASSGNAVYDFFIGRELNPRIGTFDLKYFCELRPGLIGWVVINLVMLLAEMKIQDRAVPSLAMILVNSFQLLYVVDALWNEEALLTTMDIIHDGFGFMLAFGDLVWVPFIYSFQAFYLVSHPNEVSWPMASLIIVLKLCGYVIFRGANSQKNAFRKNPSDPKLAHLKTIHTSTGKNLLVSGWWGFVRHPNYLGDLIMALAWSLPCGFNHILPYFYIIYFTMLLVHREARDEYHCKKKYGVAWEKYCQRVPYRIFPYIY
UniProt Q8NC56: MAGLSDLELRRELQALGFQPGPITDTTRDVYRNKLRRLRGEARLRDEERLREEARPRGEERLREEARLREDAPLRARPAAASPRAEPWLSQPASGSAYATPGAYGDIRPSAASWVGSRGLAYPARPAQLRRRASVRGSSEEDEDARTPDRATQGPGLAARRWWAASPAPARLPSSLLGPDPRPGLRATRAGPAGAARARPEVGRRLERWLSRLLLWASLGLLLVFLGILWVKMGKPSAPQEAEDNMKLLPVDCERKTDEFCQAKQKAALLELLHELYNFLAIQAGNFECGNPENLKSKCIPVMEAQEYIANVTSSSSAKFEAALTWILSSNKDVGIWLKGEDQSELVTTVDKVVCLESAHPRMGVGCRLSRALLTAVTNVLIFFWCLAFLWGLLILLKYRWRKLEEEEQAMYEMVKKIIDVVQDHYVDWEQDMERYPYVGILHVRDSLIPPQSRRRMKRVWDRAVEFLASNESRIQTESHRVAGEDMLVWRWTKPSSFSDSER

The labels stand for the following.
T1: LRRC59-V5-TurboID (human) (UniProt Q96AG4)
T1 sequence: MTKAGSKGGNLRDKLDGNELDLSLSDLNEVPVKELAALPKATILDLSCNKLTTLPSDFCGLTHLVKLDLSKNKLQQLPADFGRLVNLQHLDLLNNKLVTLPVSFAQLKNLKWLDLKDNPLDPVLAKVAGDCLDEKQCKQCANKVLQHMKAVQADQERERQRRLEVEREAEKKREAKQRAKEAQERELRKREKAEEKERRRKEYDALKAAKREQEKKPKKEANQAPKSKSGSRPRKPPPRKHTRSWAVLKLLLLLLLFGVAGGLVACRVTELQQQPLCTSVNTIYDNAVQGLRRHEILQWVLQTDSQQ

T2: CHMP4B-APEX2-mCitrine (UniProt Q9H444)
T2 sequence: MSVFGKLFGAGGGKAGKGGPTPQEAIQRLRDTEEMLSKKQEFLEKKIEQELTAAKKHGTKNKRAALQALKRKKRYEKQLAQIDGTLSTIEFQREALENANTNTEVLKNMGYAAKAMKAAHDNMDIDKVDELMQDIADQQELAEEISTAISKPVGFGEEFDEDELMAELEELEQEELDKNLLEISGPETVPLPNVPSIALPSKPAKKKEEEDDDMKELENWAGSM

B1: FHOD1 (protein, UniProt Q9Y613 1-1164)
chain: MAGGEDRGDGEPVSVVTVRVQYLEDTDPFACANFPEPRRAPTCSLDGALPLGAQIPAVHRLLGAPLKLEDCALQVSPSGYYLDTELSLEEQREMLEGFYEEISKGRKPTLILRTQLSVRVNAILEKLYSSSGPELRRSLFSLKQIFQEDKDLVPEFVHSEGLSCLIRVGAAADHNYQSYILRALGQLMLFVDGMLGVVAHSDTIQWLYTLCASLSRLVVKTALKLLLVFVEYSENNAPLFIRAVNSVASTTGAPPWANLVSILEEKNGADPELLVYTVTLINKTLAALPDQDSFYDVTDALEQQGMEALVQRHLGTAGTDVDLRTQLVLYENALKLEDGDIEEAPGAGGRRERRKPSSEEGKRSRRSLEGGGCPARAPEPGPTGPASPVGPTSSTGPALLTGPASSPVGPPSGLQASVNLFPTISVAPSADTSSERSIYKARFLENVAAAETEKQVALAQGRAETLAGAMPNEAGGHPDARQLWDSPETAPAARTPQSPAPCVLLRAQRSLAPEPKEPLIPASPKAEPIWELPTRAPRLSIGDLDFSDLGEDEDQDMLNVESVEAGKDIPAPSPPLPLLSGVPPPPPLPPPPPIKGPFPPPPPLPLAAPLPHSVPDSSALPTKRKTVKLFWRELKLAGGHGVSASRFGPCATLWASLDPVSVDTARLEHLFESRAKEVLPSKKAGEGRRTMTTVLDPKRSNAINIGLTTLPPVHVIKAALLNFDEFAVSKDGIEKLLTMMPTEEERQKIEEAQLANPDIPLGPAENFLMTLASIGGLAARLQLWAFKLDYDSMEREIAEPLFDLKVGMEQLVQNATFRCILATLLAVGNFLNGSQSSGFELSYLEKVSEVKDTVRRQSLLHHLCSLVLQTRPESSDLYSEIPALTRCAKVDFEQLTENLGQLERRSRAAEESLRSLAKHELAPALRARLTHFLDQCARRVAMLRIVHRRVCNRFHAFLLYLGYTPQAAREVRIMQFCHTLREFALEYRTCRERVLQQQQKQATYRERNKTRGRMITETEKFSGVAGEAPSNPSVPVAVSSGPGRGDADSHASMKSLLTSRPEDTTHNRRSRGMVQSSSPIMPTVGPSTASPEEPPGSSLPSDTSDEIMDLLVQSVTKSSPRALAARERKRSRGNRKSLRRTLKSGLGDDLVQALGLSKGPGLEV
B2: Atlastin 3 (ATL3) (protein, UniProt Q6DD88 1-541)
chain: MLSPQRVAAAASRGADDAMESSKPGPVQVVLVQKDQHSFELDEKALASILLQDHIRDLDVVVVSVAGAFRKGKSFILDFMLRYLYSQKESGHSNWLGDPEEPLTGFSWRGGSDPETTGIQIWSEVFTVEKPGGKKVAVVLMDTQGAFDSQSTVKDCATIFALSTMTSSVQIYNLSQNIQEDDLQQLQLFTEYGRLAMDEIFQKPFQTLMFLVRDWSFPYEYSYGLQGGMAFLDKRLQVKEHQHEEIQNVRNHIHSCFSDVTCFLLPHPGLQVATSPDFDGKLKDIAGEFKEQLQALIPYVLNPSKLMEKEINGSKVTCRGLLEYFKAYIKIYQGEDLPHPKSMLQATAEANNLAAAASAKDIYYNNMEEVCGGEKPYLSPDILEEKHCEFKQLALDHFKKTKKMGGKDFSFRYQQELEEEIKELYENFCKHNGSKNVFSTFRTPAVLFTGIVALYIASGLTGFIGLEVVAQLFNCMVGLLLIALLTWGYIRYSGQYRELGGAIDFGAAYVLEQASSHIGNSTQATVRDAVVGRPSMDKKAQ
B3: VPS4B (protein, UniProt O75351 1-444)
chain: MSSTSPNLQKAIDLASKAAQEDKAGNYEEALQLYQHAVQYFLHVVKYEAQGDKAKQSIRAKCTEYLDRAEKLKEYLKNKEKKAQKPVKEGQPSPADEKGNDSDGEGESDDPEKKKLQNQLQGAIVIERPNVKWSDVAGLEGAKEALKEAVILPIKFPHLFTGKRTPWRGILLFGPPGTGKSYLAKAVATEANNSTFFSISSSDLVSKWLGESEKLVKNLFQLARENKPSIIFIDEIDSLCGSRSENESEAARRIKTEFLVQMQGVGVDNDGILVLGATNIPWVLDSAIRRRFEKRIYIPLPEPHARAAMFKLHLGTTQNSLTEADFRELGRKTDGYSGADISIIVRDALMQPVRKVQSATHFKKVRGPSRADPNHLVDDLLTPCSPGDPGAIEMTWMDVPGDKLLEPVVSMSDMLRSLSNTKPTVNEHDLLKLKKFTEDFGQEG
B4: lysophosphatidylcholine acyltransferase 1 (LPCAT1) (protein, UniProt Q8NF37 1-534)
chain: MRLRGCGPRAAPASSAGASDARLLAPPGRNPFVHELRLSALQKAQVALMTLTLFPVRLLVAAAMMLLAWPLALVASLGSAEKEPEQPPALWRKVVDFLLKAIMRTMWFAGGFHRVAVKGRQALPTEAAILTLAPHSSYFDAIPVTMTMSSIVMKAESRDIPIWGTLIQYIRPVFVSRSDQDSRRKTVEEIKRRAQSNGKWPQIMIFPEGTCTNRTCLITFKPGAFIPGAPVQPVVLRYPNKLDTITWTWQGPGALEILWLTLCQFHNQVEIEFLPVYSPSEEEKRNPALYASNVRRVMAEALGVSVTDYTFEDCQLALAEGQLRLPADTCLLEFARLVRGLGLKPEKLEKDLDRYSERARMKGGEKIGIAEFAASLEVPVSDLLEDMFSLFDESGSGEVDLRECVVALSVVCRPARTLDTIQLAFKMYGAQEDGSVGEGDLSCILKTALGVAELTVTDLFRAIDQEEKGKITFADFHRFAEMYPAFAEEYLYPDQTHFESCAETSPAPIPNGFCADFSPENSDAGRKPVRKKLD
B5: BROX (protein, UniProt Q5VW32 1-411)
chain: MTHWFHRNPLKATAPVSFNYYGVVTGPSASKICNDLRSSRARLLELFTDLSCNPEMMKNAADSYFSLLQGFINSLDESTQESKLRYIQNFKWTDTLQGQVPSAQQDAVFELISMGFNVALWYTKYASRLAGKENITEDEAKEVHRSLKIAAGIFKHLKESHLPKLITPAEKGRDLESRLIEAYVIQCQAEAQEVTIARAIELKHAPGLIAALAYETANFYQKADHTLSSLEPAYSAKWRKYLHLKMCFYTAYAYCYHGETLLASDKCGEAIRSLQEAEKLYAKAEALCKEYGETKGPGPTVKPSGHLFFRKLGNLVKNTLEKCQRENGFIYFQKIPTEAPQLELKANYGLVEPIPFEFPPTSVQWTPETLAAFDLTKRPKDDSTKPKPEEEVKPVKEPDIKPQKDTGCYIS
B6: CC2D1A (protein, UniProt Q6P1N0 1-951)
chain: MHKRKGPPGPPGRGAAAARQLGLLVDLSPDGLMIPEDGANDEELEAEFLALVGGQPPALEKLKGKGPLPMEAIEKMASLCMRDPDEDEEEGTDEDDLEADDDLLAELNEVLGEEQKASETPPPVAQPKPEAPHPGLETTLQERLALYQTAIESARQAGDSAKMRRYDRGLKTLENLLASIRKGNAIDEADIPPPVAIGKGPASTPTYSPAPTQPAPRIASAPEPRVTLEGPSATAPASSPGLAKPQMPPGPCSPGPLAQLQSRQRDYKLAALHAKQQGDTTAAARHFRVAKSFDAVLEALSRGEPVDLSCLPPPPDQLPPDPPSPPSQPPTPATAPSTTEVPPPPRTLLEALEQRMERYQVAAAQAKSKGDQRKARMHERIVKQYQDAIRAHKAGRAVDVAELPVPPGFPPIQGLEATKPTQQSLVGVLETAMKLANQDEGPEDEEDEVPKKQNSPVAPTAQPKAPPSRTPQSGSAPTAKAPPKATSTRAQQQLAFLEGRKKQLLQAALRAKQKNDVEGAKMHLRQAKGLEPMLEASRNGLPVDITKVPPAPVNKDDFALVQRPGPGLSQEAARRYGELTKLIRQQHEMCLNHSNQFTQLGNITETTKFEKLAEDCKRSMDILKQAFVRGLPTPTARFEQRTFSVIKIFPDLSSNDMLLFIVKGINLPTPPGLSPGDLDVFVRFDFPYPNVEEAQKDKTSVIKNTDSPEFKEQFKLCINRSHRGFRRAIQTKGIKFEVVHKGGLFKTDRVLGTAQLKLDALEIACEVREILEVLDGRRPTGGRLEVMVRIREPLTAQQLETTTERWLVIDPVPAAVPTQVAGPKGKAPPVPAPARESGNRSARPLHSLSVLAFDQERLERKILALRQARRPVPPEVAQQYQDIMQRSQWQRAQLEQGGVGIRREYAAQLERQLQFYTEAARRLGNDGSRDAAKEALYRRNLVESELQRLRR

In the first assay the target is T1, LRRC59-V5-TurboID (human). As to the kind of experiment: proximity labelling; LRRC59-TurboID (TurboID facing the ER lumen) in RPE1 cells; 100 µM biotin 30 minutes at 37 °C; RIPA lysis, streptavidin magnetic beads, immunoblotting.
Take Lamin A/C (from UniProt P02545 1-646): the binding result is “no binding”.
With LBR (from UniProt Q14739 1-615), the binding entry is “no binding”.
On to “endogenous LEMD2 (from UniProt Q8NC56 1-503)”, for which the binding entry is reported as “binds”.

A further assay has as its target T2, CHMP4B-APEX2-mCitrine. As to the kind of experiment: proximity labelling; APEX2 fusions of LEMD2 or CHMP4B in RPE1 cells after DOX induction of CHMP7^WT (12 h), CHMP7^NLS (6 h) or CHMP7^NES* (3, 6, 9 h); 500 μM biotin-phenol 3 h, 2 mM H2O2 2 min; RIPA lysis, streptavidin magnetic beads, label-free quantitative LC-MS/MS; compared with parental cells without APEX2 fusions.
Take B1: the binding entry was “binds”.
For the molecule B2, the binding result was “binds”.
Still for that read-out and setting: under B3 stands “binds”; under B4, “binds”.
As to B5, the binding entry was “binds”.
As to B6, the binding result is reported as “binds”.

The target of a further assay is LEMD2-APEX2-mCitrine (UniProt Q8NC56). The assay is described as above.
As for B1, the binding entry is “binds”.
In the case of B2, the binding result was “binds”.
As for B3, the binding entry is “binds”.
For the molecule B4, the binding entry is given as “binds”.
As for B5, the binding entry is given as “binds”.
In the case of B6, the binding entry is reported as “binds”.

(Values after PMC12715200.)
